This is one part of the list.
Key:
Assay in all cases: log2 fold change, soluble protein after heating vs DMSO (PISA); higher = thermal stabilisation; K562 lysate, 10 uM; active = over 0.2 and 3.5 SD of the protein, either way, in both replicates (recomputed)
nilotinib = compound: Cc1cn(-c2cc(NC(=O)c3ccc(C)c(Nc4nccc(-c5cccnc5)n4)c3)cc(C(F)(F)F)c2)cn1 [nilotinib]
Summary of the method: (§1)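 Log-two fold change in thermal stability relative to solvent controls is reported from duplicates. For each sample, crude K562 extract from dounce-homogenised pellets in PBS pH 7.4 with 1 mM MgCl2, at 1 mg/mL protein, was treated with 10 μM compound for 30 min. Aliquots heated for 3 min across 48°C-58°C were pooled, brought to 0.5% NP-40 at 4°C and cleared at 21,000xg for 90 min. The supernatant was quantified by TMTpro 16plex LC-MS/MS with channel sums equalised.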

By UniProt entry, the sequences of proteins in these tests, tags left out. Where a name states a change or a piece, a line headed by the entry shows the natural chain unless it says otherwise.
UniProt Q14697: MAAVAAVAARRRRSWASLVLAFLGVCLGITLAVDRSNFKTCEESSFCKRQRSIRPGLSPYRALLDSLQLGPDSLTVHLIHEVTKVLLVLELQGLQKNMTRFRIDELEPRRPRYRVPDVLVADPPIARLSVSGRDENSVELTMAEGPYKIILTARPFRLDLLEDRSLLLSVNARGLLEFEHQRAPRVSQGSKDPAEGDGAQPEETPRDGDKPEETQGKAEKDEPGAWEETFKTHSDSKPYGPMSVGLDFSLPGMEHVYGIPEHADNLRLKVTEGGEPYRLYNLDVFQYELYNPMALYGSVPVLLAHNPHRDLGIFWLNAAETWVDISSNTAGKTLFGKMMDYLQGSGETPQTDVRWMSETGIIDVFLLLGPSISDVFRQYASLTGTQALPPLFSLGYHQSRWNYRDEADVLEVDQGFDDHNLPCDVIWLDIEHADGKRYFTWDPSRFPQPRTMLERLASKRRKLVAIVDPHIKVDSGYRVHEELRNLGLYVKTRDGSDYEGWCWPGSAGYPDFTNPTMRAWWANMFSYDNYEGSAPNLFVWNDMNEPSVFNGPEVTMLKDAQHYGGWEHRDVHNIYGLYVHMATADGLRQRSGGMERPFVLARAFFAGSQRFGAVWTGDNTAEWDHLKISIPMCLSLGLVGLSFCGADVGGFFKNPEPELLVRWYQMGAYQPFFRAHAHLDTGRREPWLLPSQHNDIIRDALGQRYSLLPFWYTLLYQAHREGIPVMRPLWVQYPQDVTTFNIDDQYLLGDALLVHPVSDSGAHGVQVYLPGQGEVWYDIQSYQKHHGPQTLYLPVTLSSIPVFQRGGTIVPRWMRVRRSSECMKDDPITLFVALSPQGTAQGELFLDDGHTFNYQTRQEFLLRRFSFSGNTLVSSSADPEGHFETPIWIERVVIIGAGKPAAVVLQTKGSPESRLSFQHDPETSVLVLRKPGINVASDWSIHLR
UniProt Q13480: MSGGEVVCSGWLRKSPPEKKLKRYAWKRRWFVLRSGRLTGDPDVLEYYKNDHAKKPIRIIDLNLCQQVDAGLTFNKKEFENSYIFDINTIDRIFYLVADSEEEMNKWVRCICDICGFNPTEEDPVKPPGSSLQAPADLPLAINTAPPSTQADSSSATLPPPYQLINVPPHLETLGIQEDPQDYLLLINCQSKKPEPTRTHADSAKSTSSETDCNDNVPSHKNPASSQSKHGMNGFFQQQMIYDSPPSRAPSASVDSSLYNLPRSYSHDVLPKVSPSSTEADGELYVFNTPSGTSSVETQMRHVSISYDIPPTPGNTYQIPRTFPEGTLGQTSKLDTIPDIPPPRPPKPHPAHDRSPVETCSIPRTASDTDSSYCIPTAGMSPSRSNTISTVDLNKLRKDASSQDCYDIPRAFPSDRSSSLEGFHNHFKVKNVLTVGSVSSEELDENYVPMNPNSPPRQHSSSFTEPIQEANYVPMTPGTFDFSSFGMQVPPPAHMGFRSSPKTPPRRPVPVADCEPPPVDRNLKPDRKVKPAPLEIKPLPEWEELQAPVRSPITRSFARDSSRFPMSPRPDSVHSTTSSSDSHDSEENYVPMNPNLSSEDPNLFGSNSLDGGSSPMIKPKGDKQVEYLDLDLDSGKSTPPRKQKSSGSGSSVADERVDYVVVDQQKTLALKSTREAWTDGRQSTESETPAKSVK
UniProt Q9UET6: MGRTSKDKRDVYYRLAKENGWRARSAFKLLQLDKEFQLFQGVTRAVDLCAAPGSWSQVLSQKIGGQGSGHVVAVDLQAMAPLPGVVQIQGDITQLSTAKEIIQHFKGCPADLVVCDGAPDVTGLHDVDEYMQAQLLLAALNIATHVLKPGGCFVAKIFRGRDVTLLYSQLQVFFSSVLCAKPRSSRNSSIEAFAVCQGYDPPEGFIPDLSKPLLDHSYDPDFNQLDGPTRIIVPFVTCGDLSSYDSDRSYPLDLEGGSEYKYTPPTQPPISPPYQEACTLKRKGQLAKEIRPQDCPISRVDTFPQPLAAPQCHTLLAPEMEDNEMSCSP
UniProt Q7L5D6: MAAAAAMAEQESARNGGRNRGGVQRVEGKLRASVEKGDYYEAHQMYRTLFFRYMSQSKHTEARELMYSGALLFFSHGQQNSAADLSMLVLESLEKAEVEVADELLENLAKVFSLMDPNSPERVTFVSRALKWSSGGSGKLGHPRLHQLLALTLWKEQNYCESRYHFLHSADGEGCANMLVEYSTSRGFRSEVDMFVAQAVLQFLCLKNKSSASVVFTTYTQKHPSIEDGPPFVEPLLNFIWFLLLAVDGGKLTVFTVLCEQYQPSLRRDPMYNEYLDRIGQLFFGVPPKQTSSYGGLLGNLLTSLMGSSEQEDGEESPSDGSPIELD
UniProt Q92616, whole entry, looked up: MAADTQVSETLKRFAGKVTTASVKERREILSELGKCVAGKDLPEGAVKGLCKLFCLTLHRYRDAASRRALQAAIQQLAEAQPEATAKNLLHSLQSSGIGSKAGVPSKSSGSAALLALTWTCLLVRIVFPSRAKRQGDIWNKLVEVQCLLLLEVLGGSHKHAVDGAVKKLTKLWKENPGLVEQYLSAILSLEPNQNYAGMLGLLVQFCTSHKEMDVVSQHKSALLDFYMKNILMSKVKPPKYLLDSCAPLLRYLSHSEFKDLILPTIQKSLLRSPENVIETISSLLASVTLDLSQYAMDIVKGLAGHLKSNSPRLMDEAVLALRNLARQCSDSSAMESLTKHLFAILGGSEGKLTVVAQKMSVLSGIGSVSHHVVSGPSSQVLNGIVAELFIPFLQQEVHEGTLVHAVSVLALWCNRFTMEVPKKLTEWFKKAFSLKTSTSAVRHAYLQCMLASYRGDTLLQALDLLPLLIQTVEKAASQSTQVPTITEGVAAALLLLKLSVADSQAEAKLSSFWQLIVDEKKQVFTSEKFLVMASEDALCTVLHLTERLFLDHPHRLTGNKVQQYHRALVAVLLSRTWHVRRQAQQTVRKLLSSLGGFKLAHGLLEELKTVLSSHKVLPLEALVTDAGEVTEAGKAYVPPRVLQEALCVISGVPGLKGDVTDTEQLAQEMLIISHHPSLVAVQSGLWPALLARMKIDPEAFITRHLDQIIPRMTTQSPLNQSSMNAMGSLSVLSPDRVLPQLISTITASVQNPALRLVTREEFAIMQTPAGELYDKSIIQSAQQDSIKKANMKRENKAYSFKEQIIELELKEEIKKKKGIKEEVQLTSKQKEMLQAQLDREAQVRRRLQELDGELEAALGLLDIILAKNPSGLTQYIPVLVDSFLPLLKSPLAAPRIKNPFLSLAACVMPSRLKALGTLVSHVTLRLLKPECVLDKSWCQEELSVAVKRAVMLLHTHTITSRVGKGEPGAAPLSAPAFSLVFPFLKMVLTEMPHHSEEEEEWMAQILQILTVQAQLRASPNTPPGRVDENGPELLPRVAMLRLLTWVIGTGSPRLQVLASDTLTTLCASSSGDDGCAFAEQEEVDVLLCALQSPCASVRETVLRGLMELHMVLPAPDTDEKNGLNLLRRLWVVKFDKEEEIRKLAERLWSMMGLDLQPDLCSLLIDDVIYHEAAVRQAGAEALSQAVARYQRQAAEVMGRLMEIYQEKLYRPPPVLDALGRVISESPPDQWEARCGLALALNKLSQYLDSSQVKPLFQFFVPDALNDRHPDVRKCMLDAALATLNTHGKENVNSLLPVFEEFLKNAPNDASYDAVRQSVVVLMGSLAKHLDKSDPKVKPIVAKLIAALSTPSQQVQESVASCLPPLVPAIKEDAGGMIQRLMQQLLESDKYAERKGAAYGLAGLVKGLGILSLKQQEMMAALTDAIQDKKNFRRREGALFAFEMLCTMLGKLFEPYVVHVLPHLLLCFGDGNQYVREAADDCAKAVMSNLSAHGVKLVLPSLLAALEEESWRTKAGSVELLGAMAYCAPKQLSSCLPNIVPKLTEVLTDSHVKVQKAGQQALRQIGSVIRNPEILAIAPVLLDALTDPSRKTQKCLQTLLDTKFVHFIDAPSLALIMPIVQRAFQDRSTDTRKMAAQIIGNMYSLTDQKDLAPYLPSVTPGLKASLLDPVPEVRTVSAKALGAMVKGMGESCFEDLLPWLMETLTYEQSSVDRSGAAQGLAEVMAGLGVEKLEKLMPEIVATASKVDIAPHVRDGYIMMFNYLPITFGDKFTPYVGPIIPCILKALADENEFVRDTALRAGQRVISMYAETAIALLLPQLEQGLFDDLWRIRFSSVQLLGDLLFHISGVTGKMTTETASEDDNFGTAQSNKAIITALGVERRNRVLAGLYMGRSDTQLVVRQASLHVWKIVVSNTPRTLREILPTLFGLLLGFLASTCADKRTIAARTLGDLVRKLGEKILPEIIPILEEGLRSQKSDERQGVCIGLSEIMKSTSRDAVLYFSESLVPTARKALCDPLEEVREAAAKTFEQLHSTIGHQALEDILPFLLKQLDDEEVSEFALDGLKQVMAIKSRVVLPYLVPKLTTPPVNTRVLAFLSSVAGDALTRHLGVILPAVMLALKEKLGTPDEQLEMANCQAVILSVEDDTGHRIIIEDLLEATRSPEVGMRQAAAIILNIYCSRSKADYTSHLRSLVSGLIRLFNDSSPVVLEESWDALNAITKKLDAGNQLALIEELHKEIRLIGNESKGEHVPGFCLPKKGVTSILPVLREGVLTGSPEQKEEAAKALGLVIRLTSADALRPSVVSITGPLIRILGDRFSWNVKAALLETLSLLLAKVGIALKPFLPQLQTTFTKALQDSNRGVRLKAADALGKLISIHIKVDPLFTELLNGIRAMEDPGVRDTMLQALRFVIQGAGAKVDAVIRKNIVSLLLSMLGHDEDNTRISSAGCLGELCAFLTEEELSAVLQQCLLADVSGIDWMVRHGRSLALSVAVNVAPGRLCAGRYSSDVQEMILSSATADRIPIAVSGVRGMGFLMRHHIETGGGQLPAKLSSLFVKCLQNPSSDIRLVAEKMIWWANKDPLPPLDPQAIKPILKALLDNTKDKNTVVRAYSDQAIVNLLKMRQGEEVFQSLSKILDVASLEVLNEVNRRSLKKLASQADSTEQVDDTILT
UniProt P0CL80: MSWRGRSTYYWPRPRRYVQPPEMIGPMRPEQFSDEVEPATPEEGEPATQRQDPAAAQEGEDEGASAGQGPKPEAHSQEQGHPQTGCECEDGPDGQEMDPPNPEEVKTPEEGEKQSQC
UniProt Q06210: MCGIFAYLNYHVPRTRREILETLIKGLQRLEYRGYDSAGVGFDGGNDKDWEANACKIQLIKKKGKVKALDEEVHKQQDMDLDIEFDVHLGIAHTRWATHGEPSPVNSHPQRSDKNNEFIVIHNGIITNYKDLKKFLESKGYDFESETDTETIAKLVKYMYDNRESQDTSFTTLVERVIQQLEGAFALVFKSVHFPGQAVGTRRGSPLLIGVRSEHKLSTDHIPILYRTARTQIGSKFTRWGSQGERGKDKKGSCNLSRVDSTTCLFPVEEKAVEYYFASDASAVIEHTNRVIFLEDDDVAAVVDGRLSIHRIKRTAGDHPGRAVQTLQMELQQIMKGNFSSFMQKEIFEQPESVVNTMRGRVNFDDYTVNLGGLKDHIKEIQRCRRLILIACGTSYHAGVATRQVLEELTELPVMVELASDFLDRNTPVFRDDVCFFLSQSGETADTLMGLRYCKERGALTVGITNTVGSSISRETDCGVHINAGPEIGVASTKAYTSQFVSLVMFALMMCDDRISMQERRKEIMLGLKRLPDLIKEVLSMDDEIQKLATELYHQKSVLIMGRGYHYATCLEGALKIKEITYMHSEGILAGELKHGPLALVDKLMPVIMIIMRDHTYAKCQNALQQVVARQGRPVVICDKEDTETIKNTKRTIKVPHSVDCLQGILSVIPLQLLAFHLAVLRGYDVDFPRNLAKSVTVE
UniProt P16383: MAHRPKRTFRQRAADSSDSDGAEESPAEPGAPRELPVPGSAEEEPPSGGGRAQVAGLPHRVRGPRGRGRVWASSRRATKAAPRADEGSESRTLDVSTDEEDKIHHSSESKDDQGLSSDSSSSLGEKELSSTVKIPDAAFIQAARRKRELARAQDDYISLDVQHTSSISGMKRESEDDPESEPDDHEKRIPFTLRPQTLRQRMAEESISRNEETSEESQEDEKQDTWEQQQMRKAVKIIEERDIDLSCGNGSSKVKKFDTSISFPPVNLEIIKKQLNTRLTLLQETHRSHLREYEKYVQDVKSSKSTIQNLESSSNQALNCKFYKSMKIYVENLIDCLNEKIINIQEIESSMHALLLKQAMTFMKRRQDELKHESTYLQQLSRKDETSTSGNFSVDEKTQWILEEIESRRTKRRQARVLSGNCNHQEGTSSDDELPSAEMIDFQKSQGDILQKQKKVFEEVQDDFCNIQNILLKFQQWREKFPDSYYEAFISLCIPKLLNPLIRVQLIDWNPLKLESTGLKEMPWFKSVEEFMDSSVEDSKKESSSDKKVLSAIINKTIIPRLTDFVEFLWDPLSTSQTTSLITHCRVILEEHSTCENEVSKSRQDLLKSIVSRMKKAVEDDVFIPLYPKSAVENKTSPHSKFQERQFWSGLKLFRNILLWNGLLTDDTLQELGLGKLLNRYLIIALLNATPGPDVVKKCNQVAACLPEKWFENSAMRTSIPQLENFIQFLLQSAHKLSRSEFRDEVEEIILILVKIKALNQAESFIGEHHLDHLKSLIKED

[1] = compound: Cc1nc(Nc2n[nH]c3c2CN(C(=O)N[C@H](CN(C)C)c2ccccc2)C3(C)C)c2sccc2n1
Summary of the method: as §1

dasatinib = compound: Cc1nc(Nc2ncc(C(=O)Nc3c(C)cccc3Cl)s2)cc(N2CCN(CCO)CC2)n1 [dasatinib]
Summary of the method: as §1

[2] = compound: Cc1ncc(-c2ccnc(Nc3ccc(S(C)(=O)=O)cc3)n2)n1C(C)C
Summary of the method: as §1

[3] = compound: Cn1cc(-c2ccc3c(c2)CCN3C(=O)Cc2cccc(C(F)(F)F)c2)c2c(N)ncnc21
Summary of the method: as §1

quisinostat = compound: Cn1cc(CNCC2CCN(c3ncc(C(=O)NO)cn3)CC2)c2ccccc21 [quisinostat]
Summary of the method: as §1

tipifarnib = compound: Cn1cncc1[C@@](N)(c1ccc(Cl)cc1)c1ccc2c(c1)c(-c1cccc(Cl)c1)cc(=O)n2C [tipifarnib]
Summary of the method: as §1

[4] = compound: NC(=O)Nc1cc(-c2cccc(F)c2)sc1C(=O)N[C@H]1CCCNC1
Summary of the method: as §1

[5] = compound: NC(=O)c1cnc(N[C@@H]2CCCC[C@@H]2N)nc1Nc1cccc(-n2nccn2)c1
Summary of the method: as §1

[6] = compound: NC1(c2ccc(-c3nc4ccn5c(=O)[nH]nc5c4cc3-c3ccccc3)cc2)CCC1
Summary of the method: as §1

[7] = compound: NCC(=O)Nc1ccc(-n2nc(C(F)(F)F)cc2-c2ccc3c(ccc4ccccc43)c2)cc1
Summary of the method: as §1

vorinostat = compound: O=C(CCCCCCC(=O)Nc1ccccc1)NO [vorinostat]
Summary of the method: as §1

silmitasertib = compound: O=C(O)c1ccc2c(c1)nc(Nc1cccc(Cl)c1)c1ccncc12 [silmitasertib]
Summary of the method: as §1

[8] = compound: O=C1NC(=O)C(c2cnc3ccccn23)=C1c1cn2c3c(cc(F)cc13)CN(C(=O)N1CCCCC1)CC2
Summary of the method: as §1

entospletinib = compound: c1cn2cc(-c3ccc4cn[nH]c4c3)nc(Nc3ccc(N4CCOCC4)cc3)c2n1 [entospletinib]
Summary of the method: as §1

| Target | log2 fold change (nilotinib) | log2 fold change [1] | log2 fold change (dasatinib) | log2 fold change [2] | log2 fold change [3] | log2 fold change (quisinostat) | log2 fold change (tipifarnib) | log2 fold change [4] | log2 fold change [5] | log2 fold change [6] | log2 fold change [7] | log2 fold change (vorinostat) | log2 fold change (silmitasertib) | log2 fold change [8] | log2 fold change (entospletinib) |
| --- | --- | --- | --- | --- | --- | --- | --- | --- | --- | --- | --- | --- | --- | --- | --- |
| GANAB isoform 2 (UniProt Q14697) | inactive: 0.015 | inactive: -0.008 | inactive: 0.008 | inactive: 0.005 | inactive: -0.003 | inactive: 0.053 | inactive: -0.018 | inactive: 0.001 | inactive: 0.004 | inactive: -0.004 | inactive: -0.005 | inactive: 0.091 | inactive: 0.011 | inactive: 0.007 | inactive: 0 |
| GAB1 isoform 2 (UniProt Q13480) | inactive: -0.019 | inactive: 0.039 | inactive: -0.025 | inactive: 0.005 | inactive: 0.025 | inactive: -0.049 | inactive: 0.02 | inactive: 0.005 | inactive: 0.007 | inactive: 0.042 | inactive: -0.015 | inactive: -0.064 | inactive: -0.069 | inactive: -0.026 | inactive: 0.112 |
| FTSJ1 (UniProt Q9UET6) | inactive: -0.013 | inactive: -0.039 | inactive: -0.016 | inactive: -0.007 | inactive: -0.007 | inactive: -0.032 | inactive: -0.054 | inactive: 0.035 | inactive: -0.001 | inactive: 0.029 | inactive: -0.024 | active: -0.326 | inactive: 0.024 | inactive: 0.009 | inactive: 0.05 |
| GET4 (UniProt Q7L5D6) | inactive: -0.008 | inactive: 0.037 | inactive: -0.031 | inactive: 0.007 | inactive: 0.007 | inactive: 0.004 | inactive: -0.024 | inactive: 0.027 | inactive: -0.013 | inactive: -0.015 | inactive: 0.039 | inactive: 0.092 | inactive: -0.001 | inactive: 0.024 | inactive: 0.025 |
| GCN1 (UniProt Q92616) | inactive: 0.015 | inactive: -0.017 | inactive: -0.071 | inactive: 0.001 | inactive: 0.066 | inactive: -0.072 | inactive: -0.01 | inactive: 0.047 | inactive: 0.001 | inactive: -0.037 | inactive: 0.01 | active: -0.374 | inactive: 0.114 | inactive: 0.033 | inactive: -0.011 |
| GAGE12F (UniProt P0CL80) | inactive: 0.03 | inactive: 0.044 | inactive: 0 | inactive: 0.024 | inactive: 0.004 | inactive: -0.079 | inactive: -0.007 | inactive: -0.056 | inactive: 0.025 | inactive: -0.01 | inactive: -0.049 | inactive: 0.069 | inactive: -0.06 | inactive: 0.018 | inactive: -0.241 |
| GFPT1 (UniProt Q06210) | inactive: 0.003 | inactive: -0.009 | inactive: -0.013 | inactive: 0.008 | inactive: 0.002 | inactive: -0.031 | inactive: -0.006 | inactive: 0.027 | inactive: -0.003 | inactive: -0.025 | inactive: 0.034 | active: -0.409 | inactive: 0.004 | inactive: 0.012 | inactive: 0.019 |
| GCFC2 (UniProt P16383) | inactive: 0.005 | inactive: -0.02 | inactive: -0.023 | inactive: -0.011 | inactive: 0.058 | inactive: 0 | inactive: 0.033 | inactive: 0.022 | inactive: -0.003 | inactive: 0.014 | inactive: 0.006 | inactive: -0.113 | inactive: 0.007 | inactive: 0.026 | inactive: -0.023 |
| GCC2 (UniProt Q8IWJ2) | inactive: 0.02 | inactive: 0.024 | inactive: 0.019 | inactive: 0.02 | inactive: 0.014 | inactive: -0.038 | inactive: -0.001 | inactive: -0.02 | inactive: -0.015 | inactive: -0.003 | inactive: 0.011 | inactive: -0.007 | inactive: -0.014 | inactive: 0.015 | inactive: 0.009 |

Some of the entries so far, with tabs.
Target	log2 fold change (nilotinib)	log2 fold change [1]	log2 fold change (dasatinib)	log2 fold change [2]	log2 fold change [3]	log2 fold change (quisinostat)	log2 fold change (tipifarnib)	log2 fold change [4]	log2 fold change [5]	log2 fold change [6]	log2 fold change [7]	log2 fold change (vorinostat)	log2 fold change (silmitasertib)	log2 fold change [8]	log2 fold change (entospletinib)
GET4 (UniProt Q7L5D6)	inactive: -0.008	inactive: 0.037	inactive: -0.031	inactive: 0.007	inactive: 0.007	inactive: 0.004	inactive: -0.024	inactive: 0.027	inactive: -0.013	inactive: -0.015	inactive: 0.039	inactive: 0.092	inactive: -0.001	inactive: 0.024	inactive: 0.025
GCC2 (UniProt Q8IWJ2)	inactive: 0.02	inactive: 0.024	inactive: 0.019	inactive: 0.02	inactive: 0.014	inactive: -0.038	inactive: -0.001	inactive: -0.02	inactive: -0.015	inactive: -0.003	inactive: 0.011	inactive: -0.007	inactive: -0.014	inactive: 0.015	inactive: 0.009

— the supplement of paper PMC10849652
